{"source": "PubChem BioAssay AID1259254 – NCATS – 2017", "test": "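Gene knock-downs that lead to re-replication, shown by excess G2 DNA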 (primary screen)", "cells": "human HCT116 colorectal cancer cells", "reagent": "single siRNA against human genes", "timing": "3 days", "read-out": "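Imaged Hoechst DNA stain sorts each cell into a cycle phase by DNA amount; per plate, G2 fraction set to 0% for non-targeting and 100% for GMNN siRNA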", "reading the numbers": "G2 robust z-score: higher = more G2 cells, more excess DNA replication", "hit rule": "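An siRNA counts as active if its G2 robust z-score lies at least 5 MADs above the screen median; here such calls match roughly 38% of GMNN control or more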", "note": "Here is an unselected part of about 59,000 reagents tested. In the full data, about 1,550 (2.6%) are marked active. 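G2 share is only a proxy for re-replication; each gene was hit by three separate siRNAs, and active genes were retested.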 Entries without a mark were called inactive. Further read-outs or replicates are left out here. Not stated in the record: the amount of reagent."}
The first 3 entries, to show the layout:
{"Target gene": "CILK1 (ciliogenesis associated kinase 1)", "PubChem SID": "SID160732185", "G2 robust z-score": 0.541}
{"Target gene": "CILK1 (ciliogenesis associated kinase 1)", "PubChem SID": "SID160732193", "G2 robust z-score": -1.37}
{"Target gene": "CILK1 (ciliogenesis associated kinase 1)", "PubChem SID": "SID160732202", "G2 robust z-score": 4.34}

Main list, repeating the preview:
{"Target gene": "CILK1 (ciliogenesis associated kinase 1)", "PubChem SID": "SID160732185", "G2 robust z-score": 0.541}
{"Target gene": "CILK1 (ciliogenesis associated kinase 1)", "PubChem SID": "SID160732193", "G2 robust z-score": -1.37}
{"Target gene": "CILK1 (ciliogenesis associated kinase 1)", "PubChem SID": "SID160732202", "G2 robust z-score": 4.34}
{"Target gene": "LINC00205 (long independently transcribed non-coding RNA 205)", "PubChem SID": "SID160725580", "G2 robust z-score": -0.148}
{"Target gene": "LINC00205 (long independently transcribed non-coding RNA 205)", "PubChem SID": "SID160725581", "G2 robust z-score": 1.31}
{"Target gene": "LINC00205 (long independently transcribed non-coding RNA 205)", "PubChem SID": "SID160733788", "G2 robust z-score": 2.47}
{"Target gene": "CYTL1 (cytokine like 1)", "PubChem SID": "SID160741639", "G2 robust z-score": 0.186}
{"Target gene": "CYTL1 (cytokine like 1)", "PubChem SID": "SID160741640", "G2 robust z-score": 1.01}
{"Target gene": "CYTL1 (cytokine like 1)", "PubChem SID": "SID160741641", "G2 robust z-score": -0.437}
{"Target gene": "ZAR1L (zygote arrest 1 like)", "PubChem SID": "SID160734008", "G2 robust z-score": 0.81}
{"Target gene": "ZAR1L (zygote arrest 1 like)", "PubChem SID": "SID160770019", "G2 robust z-score": 0.0297}
{"Target gene": "ZAR1L (zygote arrest 1 like)", "PubChem SID": "SID160770020", "G2 robust z-score": -0.795}
{"Target gene": "NRF1 (nuclear respiratory factor 1)", "PubChem SID": "SID160778241", "G2 robust z-score": -0.292}
{"Target gene": "NRF1 (nuclear respiratory factor 1)", "PubChem SID": "SID160778242", "G2 robust z-score": 0.521}
{"Target gene": "NRF1 (nuclear respiratory factor 1)", "PubChem SID": "SID160778243", "G2 robust z-score": 0.0621}
{"Target gene": "GABPA (GA binding protein transcription factor subunit alpha)", "PubChem SID": "SID160768296", "G2 robust z-score": 0.202}
{"Target gene": "GABPA (GA binding protein transcription factor subunit alpha)", "PubChem SID": "SID160768306", "G2 robust z-score": -0.967}
{"Target gene": "GABPA (GA binding protein transcription factor subunit alpha)", "PubChem SID": "SID160768312", "G2 robust z-score": -0.527}
{"Target gene": "ISM2 (isthmin 2)", "PubChem SID": "SID160758248", "G2 robust z-score": 1.68}
{"Target gene": "ISM2 (isthmin 2)", "PubChem SID": "SID160758249", "G2 robust z-score": -0.462}
{"Target gene": "ISM2 (isthmin 2)", "PubChem SID": "SID160758250", "G2 robust z-score": 0.179}
{"Target gene": "RSPH14 (radial spoke head 14 homolog)", "PubChem SID": "SID160738479", "G2 robust z-score": 0.509}
{"Target gene": "RSPH14 (radial spoke head 14 homolog)", "PubChem SID": "SID160738480", "G2 robust z-score": -0.317}
{"Target gene": "RSPH14 (radial spoke head 14 homolog)", "PubChem SID": "SID160738481", "G2 robust z-score": 2.4}
{"Target gene": "ZNF225 (zinc finger protein 225)", "PubChem SID": "SID160719304", "G2 robust z-score": -0.447}
{"Target gene": "ZNF225 (zinc finger protein 225)", "PubChem SID": "SID160719305", "G2 robust z-score": 1.72}
{"Target gene": "ZNF225 (zinc finger protein 225)", "PubChem SID": "SID160719306", "G2 robust z-score": -0.666}
{"Target gene": "FXN (frataxin)", "PubChem SID": "SID160767284", "G2 robust z-score": 1.89}
{"Target gene": "FXN (frataxin)", "PubChem SID": "SID160767293", "G2 robust z-score": 0.112}
{"Target gene": "FXN (frataxin)", "PubChem SID": "SID160767304", "G2 robust z-score": 0.219}
